Results as given in patent publication US20120077957A1, “Lactam-Bridged Melanocortin Receptor-Specific Peptides” (PALATIN TECHNOLOGIES, INC., priority 2009, published 2012).
At least one structure is not confirmed: it was looked up by name or label, or the drawing left a doubt.

By UniProt entry, the sequences of proteins in these tests, tags left out.
UniProt P32245, whole entry: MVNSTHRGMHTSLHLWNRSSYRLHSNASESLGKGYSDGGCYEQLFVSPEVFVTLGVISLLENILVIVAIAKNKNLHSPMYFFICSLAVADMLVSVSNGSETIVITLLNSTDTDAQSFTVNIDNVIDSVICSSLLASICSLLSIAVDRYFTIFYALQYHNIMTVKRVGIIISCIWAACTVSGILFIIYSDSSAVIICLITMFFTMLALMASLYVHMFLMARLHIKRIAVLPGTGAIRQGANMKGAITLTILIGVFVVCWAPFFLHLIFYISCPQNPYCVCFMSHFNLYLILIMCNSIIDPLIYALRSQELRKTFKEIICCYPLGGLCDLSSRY

How the values were obtained:
human MC4-R [1] = target: T1, human MC4-R (Homo sapiens, UniProt P32245); experiment: Competitive inhibition binding assay with [I125]-NDP-α-MSH or Eu-NDP-α-MSH, membranes of HEK-293 cells expressing recombinant hMC4-R; details: averages of all comparable assays
T1 construct: expressed in transfected cells; host or cells: HEK293 T-REx (tetracycline-regulated, Invitrogen); cell line from Palatin Technologies with license from the University of Michigan
Experimental: A competitive inhibition binding assay was performed using membrane homogenates prepared from HEK-293 cells that express recombinant hMC4-R, hMC3-R, or hMC5-R, and from B-16 mouse melanoma cells (containing endogenous MC1-R). In some instances, HEK-293 cells that express recombinant hMC1-R were employed. In the examples that follow, all MC3-R, MC4-R and MC5-R values are for human recombinant receptors. […] After incubation for 60 minutes at 37° C., the assay mixture was filtered and the membranes washed three times with ice-cold buffer. Filters were dried and counted in a gamma counter for bound radioactivity. […] Maximal specific binding (100%) was defined as the difference in radioactivity (cpm) bound to cell membranes in the absence and presence of 1 μM NDP-α-MSH. […] Ki values for test peptides of the present invention were determined using Graph-Pad Prism® curve-fitting software.
Alternatively, a competitive inhibition binding assay was performed employing Eu-NDP-α-MSH (PerkinElmer Life Sciences catalog No. AD0225) with determination by time-resolved fluorometry (TRF) of the lanthanide chelate. […] After incubation for 90 minutes at 37° C., the reaction was stopped by filtration over AcroWell 96-well filter plates (Pall Life Sciences). […] Ki values were determined by curve-fitting with Graph-Pad Prism® software using a one-site fixed-slope competition binding model.

human MC4-R [2] = target: T1, human MC4-R; experiment: cAMP functional assay in HEK-293 T-REx cells expressing human MC4-R, induced with doxycycline 0.1 ng/mL (low density); assay type: cell-based; details: averages of all comparable assays
Description: A HEK293 cell line transfected with human MC4-R (from Palatin Technologies, US, with license from the University of Michigan) was used. The human MC4-R was introduced to HEK293 by using the T-REx™ System, Invitrogen. The T-REx™ System employs a tetracycline-regulated mammalian expression system that uses regulatory elements from the E. coli Tn10-encoded tetracycline (Tet) resistance operon. By use of the T-REx™ System, expression of the gene of interest, the human MC4-R gene, is repressed in the absence of tetracycline or doxycycline and induced in the presence of tetracycline or doxycycline (see T-REx™ System Manual, published by Invitrogen).
Cells were then counted and volume was adjusted to 5×10^4 cells per 200 μL.
The cells were then dispensed into 96-well plates (BD 353916) in 198 μL (about 5×10^4) cells/well and incubated for 10 minutes at 37° C. The compound to be tested was diluted with DMSO to a final concentration of 1 mM. Serial dilution was prepared in polypropylene removable 12-well library tube strips (VWR cat #83009-682). 120 μL of the 1 mM compound stock was pipetted in the second column on the plate.
2 μL of the standard, [Nle^4, D-Phe^7]alpha-Melanocyte Stimulating Hormone (NDP-α-MSH), or compound was added to the 96-well plate using the Janus robotic system. All assay samples were run in duplicate (i.e. each sample was in two low dox and two high dox plates, respectively). The plates were gently shaken and incubated for 15 minutes at 37° C. […]
Agonist stimulation of the MC4-R activates adenylate cyclase, which is an enzyme that catalyses the formation 3′,5′-cyclic adenosine monophosphate (cAMP) from adenosine triphosphate (ATP). […] Fluoresence ratios were then calculated as described in the CisBio HTRF kit, with GraphPad Prism software used to plot the change in fluorescence percent values versus cAMP concentration using the variable slope dose response curve and, based on calculated cAMP concentrations, to determine EC50 and Emax values. […]

`CC(=O)N[C@@H](CCCNC(=N)N)C(=O)N[C@H]1CC(=O)NCCCC[C@@H](C(=O)O)NC(=O)[C@H](Cc2c[nH]c3ccccc23)NC(=O)[C@H](CCCNC(=N)N)NC(=O)[C@@H](Cc2ccccc2)NC(=O)[C@H](CCN)NC1=O` [reference compound] was tested. Which Ki (human MC4-R [1]) did it give?
Its Ki is 56 nM.

And the EC50 (human MC4-R [2])?
Its EC50 is 4 nM.

How did the EC50 (human MC4-R [2]) turn out when `CC(=O)N[C@@H](CCCNC(=N)N)C(=O)N[C@H]1CC(=O)NCCCC[C@@H](C(N)=O)NC(=O)[C@H](Cc2c[nH]c3ccccc23)NC(=O)[C@H](CCCNC(=N)N)NC(=O)[C@@H](Cc2ccccc2)NC(=O)[C@H](CCN)NC1=O` [reference compound] was run?
The EC50 was 0.3 nM.

For `CC(=O)N[C@@H](CCCNC(=N)N)C(=O)N[C@H]1CC(=O)NCCCC[C@@H](C(N)=O)NC(=O)[C@H](Cc2c[nH]c3ccccc23)NC(=O)[C@H](CCCNC(=N)N)NC(=O)[C@@H](Cc2ccccc2)NC(=O)[C@@H]2CCCN2C1=O` [reference compound], which Ki (human MC4-R [1]) is on record?
Its Ki is 17 nM.

What about the EC50 (human MC4-R [2]) of the same molecule?
Its EC50 is 9 nM.
